Results deposited as PubChem BioAssay AID1259425 (University of Nebraska Medical Center, 2018)
Shown is an unselected part of about 14,000 reagents tested. Further read-outs or replicates are left out here. Reagent sequences are not shown. Not given: the time to read-out.

Test: 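Compare each knockdown with KSR1 silencing using changes in marker transcripts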 (primary screen)
Cell system: HCT116 human colon cancer cells
Reagents: siRNA pool against human genes, 50 nM siRNA
Detection: 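mRNA of six signature genes measured together by branched-DNA assay after 50 nM siRNA pool, blank removed, divided by geometric mean of two housekeeping genes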
Scale: BNIP3L mRNA: higher = more BNIP3L transcript after knockdown

The first 5 records as a preview:
gene symbol	BNIP3L mRNA, set 1
H2AJ	0.103
ARVCF	0.0912
ZMYM1	0.222
TIMM44	0.135
NKAIN1	0.0879

The listing, repeating the preview:
gene symbol	BNIP3L mRNA, set 1
H2AJ	0.103
ARVCF	0.0912
ZMYM1	0.222
TIMM44	0.135
NKAIN1	0.0879
GPR158	0.201
RCC2	0.0543
CD14	0.0867
KIRREL3	0.0322
TOP1MT	0.122
VNN2	0.179
TWNK	0.104
FBXL18	0.0981
RPL38	0.119
LIME1	0.127
SPATA31H1	0.371
WARS1	0.0563
NOL6	0.0591
TFF2	0.257
NAP1L4	0.118
MIS18BP1	0.129
ESR1	0.144
LAMP5	0.097
GPR142	0.159
EIF4A3	0.151
USP46	0.0988
OSTF1	0.151
GFI1B	0.12
DAAM2	0.0654
NR5A2	0.109
IL12A	0.109
APOBEC3F	0.0484
NETO2	0.112
HLX	0.0763
THUMPD1	0.122
OGFOD2	0.112
TXNL1	0.0596
ADAM9	0.244
MVP	0.198
LRRC32	0.179
NECAB2	0.0915
SLC4A1AP	0.126
UBQLN4	0.106
ITGB3BP	0.0718
LYRM2	0.16
CACNG3	0.119
IL2RG	0.0943
GEMIN6	0.0952
PPIP5K1	0.167
CALN1	0.0921
